The record followed here is PMC10857571.

No constants are given. Whether binding was seen depends on the method and setting. In cells and extracts the contact can be indirect. Some results given as binding are weak or reduced against the parent protein; the word gives no strength.

Test in all cases: co-IP; endogenous proteins in THP-1 cell lysates (100 μg protein), 2 μg antibody, TENDS buffer (20 mM Tris HCl pH 8.0, 1 mM EDTA, 2 mM DTT, 0.25 M sucrose), 4°C, protein A/G-agarose, immunoblot; cells exposed to vehicle, olaparib, oxLDL (100 μg/mL, 24 hr) or oxLDL with olaparib; normal rabbit IgG as control
In experiment [1] the target is RelA (p65) (human (endogenous in THP-1)), Q04206. The following applies: remark: other sources report otherwise.
The target of experiment [2] is T1, RelB (human (endogenous in THP-1)), Q01201.
T1 chain: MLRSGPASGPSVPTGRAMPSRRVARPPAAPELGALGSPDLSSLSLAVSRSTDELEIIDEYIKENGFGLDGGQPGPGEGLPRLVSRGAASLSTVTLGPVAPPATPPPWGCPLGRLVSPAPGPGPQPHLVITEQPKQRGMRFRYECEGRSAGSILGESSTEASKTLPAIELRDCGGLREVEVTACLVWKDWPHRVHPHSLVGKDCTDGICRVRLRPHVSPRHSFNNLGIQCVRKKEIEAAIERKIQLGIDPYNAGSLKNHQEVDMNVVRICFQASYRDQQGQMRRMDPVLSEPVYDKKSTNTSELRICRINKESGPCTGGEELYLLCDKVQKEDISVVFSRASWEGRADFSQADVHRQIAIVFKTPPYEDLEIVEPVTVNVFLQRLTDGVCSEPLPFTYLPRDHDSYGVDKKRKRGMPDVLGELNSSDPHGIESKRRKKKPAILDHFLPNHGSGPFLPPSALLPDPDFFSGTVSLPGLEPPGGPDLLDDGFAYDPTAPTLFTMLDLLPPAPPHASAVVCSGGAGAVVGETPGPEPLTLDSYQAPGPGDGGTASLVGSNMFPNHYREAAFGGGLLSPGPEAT
The following applies: remark: other sources report otherwise.

For experiment [3], the target named is T2, IκBα (human (endogenous in THP-1)), P25963.
T2 chain: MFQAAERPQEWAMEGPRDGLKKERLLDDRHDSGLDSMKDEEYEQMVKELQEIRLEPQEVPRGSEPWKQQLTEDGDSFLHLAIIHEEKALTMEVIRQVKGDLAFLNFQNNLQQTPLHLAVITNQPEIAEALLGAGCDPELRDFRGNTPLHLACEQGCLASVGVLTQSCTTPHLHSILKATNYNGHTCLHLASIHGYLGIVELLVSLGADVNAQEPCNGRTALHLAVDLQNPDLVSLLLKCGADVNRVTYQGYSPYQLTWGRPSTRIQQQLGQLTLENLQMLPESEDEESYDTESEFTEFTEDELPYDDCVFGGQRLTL
The following applies: remark: other sources report otherwise.

Experiment [4] has as its target IκBα (human (endogenous in THP-1)) (UniProt P25963).
The target in experiment [5] is T3, RelB (human (endogenous in THP-1)) (UniProt Q01201).
T3 sequence: T1 chain

B1: IκBα, P25963 1-317 (protein)
chain: T2 chain
As to B1, the binding entry in experiment [1] and in experiment [2] was “binds” each time.

B2: RelB, Q01201 1-579 (protein)
chain: T1 chain
With B2, the binding result in experiment [3] is “binds”.

B3: NF-κB2 p52 (protein, UniProt Q00653 1-454)
chain: MESCYNPGLDGIIEYDDFKLNSSIVEPKEPAPETADGPYLVIVEQPKQRGFRFRYGCEGPSHGGLPGASSEKGRKTYPTVKICNYEGPAKIEVDLVTHSDPPRAHAHSLVGKQCSELGICAVSVGPKDMTAQFNNLGVLHVTKKNMMGTMIQKLQRQRLRSRPQGLTEAEQRELEQEAKELKKVMDLSIVRLRFSAFLRASDGSFSLPLKPVISQPIHDSKSPGASNLKISRMDKTAGSVRGGDEVYLLCDKVQKDDIEVRFYEDDENGWQAFGDFSPTDVHKQYAIVFRTPPYHKMKIERPVTVFLQLKRKRGGDVSDSKQFTYYPLVEDKEEVQRKRRKALPTFSQPFGGGSHMGGGSGGAAGGYGGAGGGGSLGFFPSSLAYSPYQSGAGPMGCYPGGGGGAQMAATVPSRDSGEEAAEPSAPSRTPQCEPQAPEMLQRAREYNARLFGLA
For B3, the binding entry in experiment [4] and in experiment [5] was “binds” throughout.
